Results are given in words; binding and its absence hold for the method and conditions named. In cells and extracts the contact can be indirect. Here binding means that the protein was enriched with, or labelled near, the bait; the list need not be complete.
T1: EVC (endogenous mouse EVC protein) (mouse (endogenous in MEFs)) (UniProt P57680)
T1 sequence: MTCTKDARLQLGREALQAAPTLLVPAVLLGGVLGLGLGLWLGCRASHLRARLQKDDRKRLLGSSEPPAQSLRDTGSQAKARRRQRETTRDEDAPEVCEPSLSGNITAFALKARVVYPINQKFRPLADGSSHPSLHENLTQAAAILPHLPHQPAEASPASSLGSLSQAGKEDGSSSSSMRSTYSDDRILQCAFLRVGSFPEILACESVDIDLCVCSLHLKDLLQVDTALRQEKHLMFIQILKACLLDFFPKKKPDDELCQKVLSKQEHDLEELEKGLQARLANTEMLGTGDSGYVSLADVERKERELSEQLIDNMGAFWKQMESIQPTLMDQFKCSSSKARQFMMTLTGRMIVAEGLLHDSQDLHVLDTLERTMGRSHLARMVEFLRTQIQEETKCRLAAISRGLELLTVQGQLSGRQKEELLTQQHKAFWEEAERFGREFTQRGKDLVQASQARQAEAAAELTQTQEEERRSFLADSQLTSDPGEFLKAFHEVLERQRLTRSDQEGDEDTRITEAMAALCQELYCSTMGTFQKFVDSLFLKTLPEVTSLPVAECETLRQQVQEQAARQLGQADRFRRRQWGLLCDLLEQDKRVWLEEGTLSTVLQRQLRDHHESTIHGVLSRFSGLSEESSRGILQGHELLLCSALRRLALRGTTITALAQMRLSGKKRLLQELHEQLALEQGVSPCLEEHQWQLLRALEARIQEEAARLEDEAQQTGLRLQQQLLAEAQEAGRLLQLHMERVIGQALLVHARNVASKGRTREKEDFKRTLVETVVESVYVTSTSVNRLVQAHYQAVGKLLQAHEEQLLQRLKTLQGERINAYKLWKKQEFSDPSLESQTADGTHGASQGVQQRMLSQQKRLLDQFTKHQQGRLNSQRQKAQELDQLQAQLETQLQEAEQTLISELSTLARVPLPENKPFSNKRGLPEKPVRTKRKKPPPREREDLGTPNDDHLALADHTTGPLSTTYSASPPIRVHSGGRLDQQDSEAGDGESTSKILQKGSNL

B1: EVC2 (endogenous, MEFs) (protein, UniProt Q8K1G2 30-1220)
chain: SGPRALPPSFPALGPGSPSRPGPAGPWASSQYSDISREARGPFENGVIFQKCSLVSGQSESQTMHVQLSVNNTRTPTSVNLSNLLVLDEITGLAVKESPGNNTQDGIQTFRKSFLQVGECYSVSYTASLDPTALGTGESLDLPARLIFQSPSQNRTQLKAPFTITVEEKIMVLPNHGLHAAGFIAAFLISLLLTVAALFFLARGRCLQGGMLSRCRIQHPENKLEPSPFTSANGVSQDLSLNDQVVAILTSEEPGSMLQALEELEIATLNQADADLEACRNQISKDIIALLMKNLVSGGHLSPQTERKMAAAFKKQFLLLENEIQEEYERKMLALTAECDLEMRKKTENQYQREMVAMEEAEEVLKRVSERSAAECSSLLRTLHGLEQEDMQRSLTLDQAEDFAQAHRQLAVFQRNELHSIVYTQIQSAVSKGELRPEVAKMMLQDYSKTQESVEELMDFFQATKRYHLSKRFGHREYLVQRLQAMETRVQGLLNTAATQLTSLIHKHERAGYLDEDQMETLLERAQTETFSIKQKLDNDLKQEKKRLHQRLITRRRRELLQKHKEQQKEQVSLGEASSTAEDAVQYLHQWRSVMAEHTAALEELQERLDQAALDDLRVLTVSLSEKATEELRRLQSTAMTQELLKRSAPWLFLQQILEEHSRESAARTTQLEAEERERGQELVQGVRQRLQQDALEAYTEEQAELRHWEHLVFMKLCCAAISLSEEDLLRVRQEAQGCFSQLDRSLALPRVRARVLQQQAQMAWREAEFRKLDQALAAPELQSKARKLRSKGRGKADLLKKNLEDKIRLFEERAPVELADQVRGELLQERVQRLEAQEAHFAESLVALQFQKVARAAETLSVYTALLSIQDLLLGELSESETLTKSACVQILESHRPELQELQELERKLEDQLVQQEEAEQQRVLESWQRWAADGPGLSEPEEMDPERQVSAILRQALNKGQKLLEQHQQRVREEWQNGAVLEDSLESIEADTMASLCSQGLRLVSYLSRMTMVPGSTLLRLLSVVLPAASQPQLLALLDAVSEKHSDHTAENESSGEQAQAEQSKRRKHQVWWKVLDSRFRADLVSQGLERMLWARQKKERILKKIYVPVQERVMFPGKGSWPHLSLEPIGELAPIPITGADAMDILNTGEKIFVFRSPREPEISLRVPPRRKKNFLNAKKANRALGLD
B2: MPP7 (protein, UniProt Q8BVD5 1-576)
chain: MPALATGSACDMGLYELLAALPAQLQPHVDSQEDLTFLWDVFGEKSLHSLVKIHEKLHCYEKQNPLPILHGAAALADDLTEELQNKLPNSEIRELLKLLSKPNVKALLSVHDTVAQKSYDPVLPPVPDDIDDEEDSVKIIRLVKNSEPLGATIKKDEQTGAITVARIMRGGAADRSGLIHVGDELREVNGIPVEDKRPEEIIKILSQSKGAITFKIIPSTKEETPSKEGKIFIKALFDYDPKEDKAIPCKEAGLSFRKGDILQIMSQDDVTWWQAKHEGDANPRAGLIPSKHFQERRLALRRPEIVVQPLKLSNTKSSGFRRSFRLSRKNKKINKSMYECKKSEQYDTADVPTYEEVTPYRRQIHDKYRLIVLVGPVGVGLNELKRKLLMSDAQHYGVIVPHTTRARRSQESDGVEYIFISKHLFETDVQINKFIEYGEYKNNYYGTSIDSVRSVLAKNKVCLLDVQPHTVKHLRTLEFKPYVIFIKPPSIERLRETRKNAKIISSRDDQGTAKPFTEEDFQEMIKSAQIMESQYGHLFDKIIINDDLTVAFNELKTTFDKLETDTHWVPVSWLHS
B3: ANKZF1 (protein, UniProt Q80UU1 1-748)
chain: MAKPAGDAAVGSRSGELFLPSVSSSATSPAPSAAPAPASVSLLSLNGEAPLIRGLSLVSQAPGEALAWAPRTSCPGENTSSGGKVSPYSLEISEKLFCSACDQIFQNHQEQREHYKLDWHRFNLKQRLKNKPLLSASDFEQQSSTGDLSSISGSDDTDSSSEEDLLPLDEGRAESEKPNRPPGFYPHRVLFKNAQGQFLYAYRCVLGPHQIPPEKAELLLQNLQNGGPRYYVVLMAAAGHFAGAIFQGREVVAHKTFHRYTVRAKRGTAQGLQDAHGRASRSAGANLRRYNEAMLYKDVRNLLAGPIWSKALGEAETVLFRAPRSGRSLFFGGQGAPLQRDDPRLWDIPLTTRRPTFGELQRVLHKLTTLQVYDEDPREMVRFHSPETHWKPVREERKKDTEKEKTKVPSDANKPLGQDEEPLKQGSESQEEDGSEVELELVELTLGTLDLREFEVLPKRRRRRKKKERSQEQQCGAHGPLPQQPQDEPFSQPTQEVETPLDTLVYEAKAPGQPELWDTLLAACRAGEVEVLKLQLATGLVDPGVKSLLNAPLGSGGFTLLHAAAAAGRGLVVRLLLEAGADPTVQDSRARPPYTVAADKSTRNEFRRFMEKNLDAYDYNKARVPGPLTQEMEARQATRKKEQKAARRQREQQQRKQREQEEQEQEEQRRFAALSDREKRALAAERRLAAQLGAPSPPVPDSAVASAGRCWSCGVSLQGLIPFHYLDFSFCSTRCLRDHRSQAGRPSS
B4: EFCAB7 (endogenous, MEFs) (protein, UniProt Q8VDY4 1-628)
chain: MASNPGSDAALGTQNPLLSGSPRTKKFPLTEQEVFYMNCRAAYLTIFKSSLENIISKDQLYLALQHAGRNPSQKTINKYWTPQTAKLNFDDFCIILSKEKPTSKAELLKSFKKLDVNDDGAILHSDLQKYLTKRGEKMTQEEVNAVINLADINANGKFDYVKFCKLYMTTSEQCLKTTLERLEADSKLRRQQFGSHMEGSPERGPSPAPKPSPRVIRKNDQETFSSKGDTSHALLSTTRKFKTSVSFTMTMSANSNQDSTLTEPNLKDWQCAQSKGCFFLEEDGEVVSHQYKMHIAQRSVLYLTIKPLYLSQVEGKRCPWLSVDTALYILKKNENPAEPQLMCFTELRNREVFGWTGELEAGIYWLIPSTTGCRLKKETKPVTEEAQLVHRDETGELSLTSEFRSTLSEIFEVIDLDGNGLISLEEYNFFELRTSGEKCDEDAWAVCRENFDTKKNELTRQGFMDLHLMEANDREGDPLDLWVTLHSMGYNKALELTEACPFVINIYAERCKPRIKVVHMEACSGQLEKAICKSVLDRSDAKVMDGYENIIVHTCNYDTWITSIIENKSDNKVIIHINNELSKNCVNNRGLNIFAVEVAPRSTMVCQHVMPLNEQEEWIYCCVYSLVA
B5: Mesothelin (MSLN) (protein, UniProt Q61468 36-600)
chain: QTQTTKTSQEATLLHAVNGAADFASLPTGLFLGLTCEEVSDLSMEQAKGLAMAVRQKNITLRGHQLRCLARRLPRHLTDEELNALPLDLLLFLNPAMFPGQQACAHFFSLISKANVDVLPRRSLERQRLLMEALKCQGVYGFQVSEADVRALGGLACDLPGKFVARSSEVLLPWLAGCQGPLDQSQEKAVREVLRSGRTQYGPPSKWSVSTLDALQSLVAVLDESIVQSIPKDVKAEWLQHISRDPSRLGSKLTVIHPRFRRDAEQKACPPGKEPYKVDEDLIFYQNWELEACVDGTMLARQMDLVNEIPFTYEQLSIFKHKLDKTYPQGYPESLIQQLGHFFRYVSPEDIHQWNVTSPDTVKTLLKVSKGQKMNAQAIALVACYLRGGGQLDEDMVKALGDIPLSYLCDFSPQDLHSVPSSVMWLVGPQDLDKCSQRHLGLLYQKACSAFQNVSGLEYFEKIKTFLGGASVKDLRALSQHNVSMDIATFKRLQVDSLVGLSVAEVQKLLGPNIVDLKTEEDKSPVRDWLFRQHQKDLDRLGLGLQGGIPNGYLVLDFNVREAFS
B6: Uroplakin UPK1B (protein, UniProt Q9Z2C6 1-260)
chain: MAKDDSTVRCFQGLLIFGHVIVGMCGIALTAECIFFVSDQHSLYPLLEATNNDDIFGAAWIGMFVGICLFCLSVLAIVGIMKSNRKILLAYFIMMFIVYGFEVASCITAATQRDFFTTNLFLKQMLMRYQNNSPPTNDDEWKNNGVTKTWDRLMLQDHCCGVNGPSDWQKYTSAFRVENNDADYPWPRQCCVMDKLKEPLNLDACKLGVPGYYHSQGCYELISGPMDRHAWGVAWFGFAILCWTFWVLLGTMFYWSRIEY
B7: Uroplakin UPK3B (protein, UniProt Q80YF6 27-275)
chain: LDLIAYVPQITAWDLEGKITATTFSLEQPRCVFDEHVSTKDTIWLVVAFSNASRDFQNPQTAAKIPTFPQLLTDGHYMTLPLSLDQLPCEDLTGGSGGAPVLRVGNDFGCYQRPYCNAPLPSQGPYSVKFLVMDAAGPPKAETKWSNPIYLHQGKNPNSIDTWPGRRSGCMIVITSILSALAGLLLLAFLAASTTRFSSLWWPEEAPEQLRIGSFMGKRYMTHHIPPSEAATLPVGCEPGLDPLPSLSP

Biological target: T1, EVC (endogenous mouse EVC protein) (mouse (endogenous in MEFs))
Test: affinity purification with mass spectrometry; mouse monoclonal anti-EVC on Dynabeads; lysates of serum-starved Evc+/+ MEFs, Evc-/- MEFs as negative control; 1X IP buffer with 25 mM NaCl, overnight at 4°C; LC-ESI-MS/MS; n = 3

Binder	binding
B1	binds
B2	binds
B3	binds
B4	binds
B5	binds
B6	binds
B7	binds

Reference: article PMC10413113
